Measurements: PMC11758948
These are yes or no findings as the source states them, for the method shown. Binding seen in cells or lysates may run through a third protein. Some results given as binding are weak or reduced against the parent protein; the word gives no strength. Where a sequence is shown, tags or fusion partners need not be part of it.

Sequences of proteins named here, by UniProt entry; tags and fusion partners are left off.
UniProt P84095: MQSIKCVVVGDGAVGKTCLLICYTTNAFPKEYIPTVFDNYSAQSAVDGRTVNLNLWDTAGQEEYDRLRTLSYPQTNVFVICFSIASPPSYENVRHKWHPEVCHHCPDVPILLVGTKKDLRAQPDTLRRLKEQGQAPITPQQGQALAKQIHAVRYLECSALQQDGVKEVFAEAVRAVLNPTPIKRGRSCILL

Biological target: T1, GST-ELMO2, RhoG-binding domain-included N-terminal region (aa 1-362) of ELMO2 fused with glutathione S-transferase (UniProt Q96JJ3)
T1 sequence: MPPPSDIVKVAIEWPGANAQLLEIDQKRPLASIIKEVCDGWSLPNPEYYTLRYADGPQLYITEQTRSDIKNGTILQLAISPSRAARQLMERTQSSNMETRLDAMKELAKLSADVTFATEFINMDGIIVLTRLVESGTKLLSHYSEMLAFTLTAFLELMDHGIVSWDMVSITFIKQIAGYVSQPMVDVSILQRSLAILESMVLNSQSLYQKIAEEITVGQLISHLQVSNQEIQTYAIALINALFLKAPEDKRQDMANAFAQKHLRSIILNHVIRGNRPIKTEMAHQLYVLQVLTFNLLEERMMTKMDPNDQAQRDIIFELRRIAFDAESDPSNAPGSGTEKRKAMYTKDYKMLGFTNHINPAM
Assay: pull-down; GST-ELMO2 (aa 1-362) on glutathione sepharose 4B beads incubated with supernatants of HeLa S3/WT, /S41A and /S41E cell lysates (Dox 48 h) at 4 °C for 1 h; 50 mM Hepes-NaOH pH 7.4, Triton X-100, 300 mM NaCl, MgCl2, 1 mM DTT; beads washed 4 times; bound proteins by Western blot; only the target purified

In the case of RhoG (from UniProt P84095 1-191), the binding was “binds”.
